Laboratory results as given in patent publication US6133313A, “Insecticidal avocadofurans and triolein” (The Regents of the University of California, priority 1998, dated 2000).

Tested on: neonate S. exigua
Test: individual toxicity of avocadofurans and triolein in artificial diet
Design: species or system Spodoptera exigua
Details: in vivo
Method: In this study, individual activity of avocadofurans was investigated quantitatively. For this purpose, eight concentrations of the avocadofurans (1) and (4) and triolein (8) were tested. Results are seen in FIG. 6.
Following pilot studies, eight concentrations of each were tested: 0, 0.5, 1, 1.5, 2, 2.5, 3, and 3.5 μmoles g^~1 diet. Also, five concentrations of triolein were tested: 0; 1,000; 2,000; 3,000; and 4,000 μg g^~1 diet. Because triolein was not compared to a structurally similar compound, a more standard dietary formulation of μg g-^1 was used rather than ^~ moles g^-1 in all triolein-treated bioassays.
Treated and control diet were prepared as described above. For each concentration the compounds were dissolved in 10 ml of Tween solution and mixed using an ultrasonic homogenizer. Untreated diet was added to make a total of 100 g and then vortexed for 3 mm. Control diet was prepared by mixing 10 ml of the Tween solution with 90 g of artificial diet to produce a final weight of 100 g. Control and treated diets were poured into 30 ml plastic cups. One neonate was placed in each cup and cups were held in an incubator. Fifteen larvae were tested at each concentration, and assays were replicated 4 times (total of 60 larvae/treatment). For each diet treatment, 9-d larval instar and weight, pupal weights, times to pupation, and larval mortality were recorded.
EC (effective concentration) values were calculated by subtracting the mean larval weight for each treatment from the mean weight of the controls, and dividing by the mean weight of the controls. LC (lethal concentration) values were obtained using probit analysis as described in Probit Analysis (1971) Cambridge University Press, Cambridge, UK. GI (growth index) and RGI (relative growth index) values were calculated as described in J. Chem. Ecol., 19:1109 (1993), but using an imax of 3 (the stage attained by most control larvae after 7 d). Statistical comparisons were conducted using SuperAnova Abacus Concept Inc., Berkeley, Calif. (1989).

Compound	Slope ± SE
CCCCCCCC/C=C\CCCCCCCC(=O)OCC(COC(=O)CCCCCCC/C=C\CCCCCCCC)OC(=O)CCCCCCC/C=C\CCCCCCCC [Triolein (8), triolein]	2.385 ± 0.555
CCCCCCCCCCCCCCCc1ccco1 [2-(pentadecyl)furan (1), 2-(pentadecyl)furan]	6.523 ± 0.817
CCCCCCCCCCCCCCCCCc1ccco1 [2-(heptadecyl)furan (4), 2-(heptadecyl)furan]	2.132 ± 0.431
